From ChEMBL document CHEMBL3988442, “University of Dundee, Small-Polar-MMV Screening Library” (2021).

Chains of the proteins cited; added tags and fusions are not shown.
UniProt P9WFT3, whole entry: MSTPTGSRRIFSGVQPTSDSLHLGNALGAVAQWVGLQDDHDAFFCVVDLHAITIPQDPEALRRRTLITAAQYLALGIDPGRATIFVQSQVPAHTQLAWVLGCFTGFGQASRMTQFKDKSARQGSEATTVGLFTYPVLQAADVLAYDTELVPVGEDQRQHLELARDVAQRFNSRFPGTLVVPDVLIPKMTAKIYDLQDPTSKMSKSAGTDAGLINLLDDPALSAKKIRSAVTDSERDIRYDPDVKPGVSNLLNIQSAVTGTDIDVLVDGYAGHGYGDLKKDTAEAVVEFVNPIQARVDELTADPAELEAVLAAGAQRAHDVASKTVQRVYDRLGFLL
UniProt P9WNZ1, whole entry: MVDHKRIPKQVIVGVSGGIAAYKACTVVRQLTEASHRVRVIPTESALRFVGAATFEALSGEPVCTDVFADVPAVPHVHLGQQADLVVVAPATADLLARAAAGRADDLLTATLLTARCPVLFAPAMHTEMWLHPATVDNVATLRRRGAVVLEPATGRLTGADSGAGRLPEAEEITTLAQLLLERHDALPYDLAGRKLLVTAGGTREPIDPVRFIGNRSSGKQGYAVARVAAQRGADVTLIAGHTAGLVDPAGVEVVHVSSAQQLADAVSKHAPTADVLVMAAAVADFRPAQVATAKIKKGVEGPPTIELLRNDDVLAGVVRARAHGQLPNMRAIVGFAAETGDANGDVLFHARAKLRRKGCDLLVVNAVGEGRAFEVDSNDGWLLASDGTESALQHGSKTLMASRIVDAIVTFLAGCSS

A: 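Enzyme assay of tryptophanyl-tRNA synthetase; the read-out is not stated. Target: Tryptophan-tRNA ligase, Mycobacterium tuberculosis (UniProt P9WFT3). Concentration: 10 µM. Higher most likely means stronger inhibition; the record gives no direction and few retests gave an IC50. Of about 65,000 compounds tested this way, about 64 (0.098%) reached 50% or more in at least one test.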
B: 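Coenzyme A biosynthesis protein CoaBC, Mycobacterium tuberculosis (UniProt P9WNZ1). Enzyme assay of CoaBC with a phosphate dye (Biomol Green) read at 650 nm. Tested at 30 µM. Higher reads as stronger inhibition, judged from the few compounds that gave an IC50. Most strong results did not repeat in a second test. Of about 67,000 compounds tested this way, about 40 (0.06%) reached 50% or more in at least one test.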

The filed quantity is “Percent Effect” (%). How 0% and 100% were set is not recorded. Most values in the screen are low, and negative values occur. The compounds are a random part of those screened. Two or more numbers in one place are separate tests of the same structure; such repeats can differ widely. A dash means the value is not listed here; it may have been measured.

Compound | A | B
Cc1nnc([C@@H]2CCO[C@@H]3CCN(C(=O)Cc4ccsc4)C[C@@H]32)o1 | -0.3607 | 5.499
O=C1NCC(C(=O)Nc2ncc(Cc3ccccc3F)s2)N1 (centres undefined) | 7.809 | -7.081
CCc1nc(NC2CCCN(C(=O)C3CC3)C2)c2cnn(C)c2n1 (centres undefined) | 0 | -1.823
Cc1nnc(SCCC(=O)N(C)Cc2ccc(F)cc2F)[nH]1 | 4.156 | -4.959
CN1CCC(c2cncc(-c3cccc(Cl)c3)n2)CC1 | - | 3.098
COc1cccc(CNc2c(C)nn(C(C)C)c2C)c1 | -0.6518 | 4.628
CC(C(=O)N1CCOCC1)S(=O)(=O)Cc1nc(C(C)(C)C)no1 (centres undefined) | -1.92 | 2.903
c1ccc(CN2Cc3ccnn3CC(COCc3cccnc3)C2)nc1 (centres undefined) | -5.183 | -11.68
COCCOc1ccc(NC(=O)C2CCCN(C(N)=O)C2)cn1 (centres undefined) | 1.652 | -1.028
CC(C)c1nccn1-c1cncc(C2CCCN(C3CCCC3)C2)n1 (centres undefined) | - | 2.427
CC(C)CCn1cc(C(C(=O)O)N2CCC(c3ccncc3)CC2)cn1 (centres undefined) | -2.193 | 5.679
Cc1csc(C2CCCN(C(=O)c3cnn4ccc(C)nc34)C2)n1 (centres undefined) | 0.3127 | -0.1248
O=C(O)CCCC(=O)Nc1cnn(COc2ccc(F)cc2Cl)c1 | -0.2867 | -6.085
COCCCS(=O)(=O)N1CCN(c2cccc(O)c2)CC1 | 2.658 | -5.119
Cc1ncncc1C(=O)N1CCCN(Cc2ncc(Cl)n2C)CC1 | -6.311 | 1.914
Cc1ccc(NCC2(O)CCNCC2)cc1C | -3.288 | 0
N#Cc1ccc(C(=O)N2CCc3c(COCC4CC4)cncc3C2)cc1 | - | 3.465
CCc1nc(C2CCCN2CCc2ccccn2)no1 (centres undefined) | -4.083 | 4.145
Cc1csc(N2CCC(CCN3CCCC3=O)CC2)n1 | 0.153 | 10.66
COc1ccc(C2(CNC(C)c3nnc(C)o3)CCCCC2)cc1 (centres undefined) | -0.387 | -21.96
CN(C)C(=O)c1nc2c(s1)CCN(C(=O)c1ccc(Cl)cc1)CC2 | 4.932 | 1.396
Cn1cccc1C(=O)N1CCc2c(CNS(C)(=O)=O)cncc2C1 | -0.7979 | -1.603
CCc1noc(CN(C)CC(c2cccs2)N2CCOCC2)n1 (centres undefined) | 0.05903 | 3.061
COc1ccccc1CN1CCC2(CC1)CC(Oc1ccccn1)CO2 (centres undefined) | -1.057 | 5.699
COc1cc(F)ccc1N(C)Cc1ccccn1 | 4.423 | 4.577
Cc1csc(C(Cc2cccs2)NCc2cc3c(cc2C)OCO3)n1 (centres undefined) | 8.569 | 0.2628
CCCc1nc(CN(CCO)Cc2cc(Br)ccc2F)no1 | 0.5718 | 7.135
Cn1cc(CN2CCS(=O)(=O)C(C)(C)C2)cn1 | 2.574 | 9.061
CN(Cc1noc(C2CC2)n1)C1CCN(Cc2cccc(F)c2F)C1 (centres undefined) | 3.432 | -0.2558
O=C(CN1CC(n2cccn2)C1)NCCc1c[nH]c2ccccc12 | -1.069 | 7.757
CCNc1cc2c(nn1)CCN(C(=O)C1Cc3ccccc3O1)C2 (centres undefined) | -5.317 | 4.12
C=C(C)COc1cccc(CNCCc2nc(N)cc(O)n2)c1 | 1.67 | -4.136
O=C(C1CC(F)(F)C1)N1C[C@@H]2CN(Cc3ccoc3)CCO[C@@H]2C1 | - | 1.333
COCC1CCCN(C(=O)c2ccc(N(C)Cc3cnn(C)c3)nc2)C1 (centres undefined) | 2.022 | 4.237
CC(C)(C)CC(=O)Nc1ccc(S(C)(=O)=O)nc1 | 1.852 | 1.471
Cc1cnc(C(=O)NCC(c2ccc(C)o2)N2CCOCC2)cn1 (centres undefined) | 0.6173 | -4.808
Cc1cccc(NC2CCN(C(=O)Nc3ccc(F)c(F)c3)CC2)n1 | 1.71 | -2.412
CC(C)c1noc(CN2CCN(C(=O)c3cccnc3O)CC2)n1 | 0.342 | 20.1 and 21.49
CC(C)NC(=O)[C@@H]1C[C@@H]2CCN(Cc3ccoc3)C[C@H]2O1 | - | 4.444
CCC(CN1CCCC1)NC(=O)Cc1c(C)[nH]c2c(C)cc(C)cc12 (centres undefined) | -3.451 | 4.079
COCCNC(=O)[C@@]12CCO[C@@H]1CCN(Cc1ccc(OC)cc1)C2 | 0.07639 | 4.26
CC(Cn1ccnc1)NC(=O)NCc1cccnc1OC1CCCC1 (centres undefined) | -7.092 | -1.305
O=C(c1cscn1)N1CCC2(CN(Cc3ccsc3)C2)C1 | -3.003 | -1.11
NC(=O)NC(=O)CNC1(c2ccc(Cl)cc2)CCCC1 | 5.695 | -2.911
O=C(C1CCC2(CCN(CC3CCOCC3)CC2)O1)N1CCCC1 (centres undefined) | -0.8892 | 3.053
Cc1nc(O)ccc1C(=O)N1CCCC1c1nc(-c2ccccc2)n[nH]1 (centres undefined) | -1.026 | -1.229
CCOc1ccc(NC(C)=O)cc1S(=O)(=O)Nc1ccon1 | 0.89 | -4.948
CCCNC(=O)CN1CCC(NC(=O)c2cc(CC)ccc2O)CC1 | -3.342 | 2.368
COc1ccc(CN2CCCN(c3cc(C(N)=O)ccn3)CC2)cc1 | 13.12 | -9.076
COc1cccc2c1ccn2CCNC(=O)CCNc1ncccn1 | 5.392 | 1.263
Cc1n[nH]c(C2CN(Cc3csc(C4CCCC4)n3)CCO2)n1 (centres undefined) | 0.2601 | 3.926
COCCn1cc2c(n1)C(CNS(C)(=O)=O)OCC2 (centres undefined) | -4.265 | -14.57
Cc1noc(CCCC(=O)NC(C)c2nnc3n2CCC3)n1 (centres undefined) | -0.08796 | -19.74
CCOC(=O)C1(O)CCN(C(=O)Nc2ccc(CC)cc2)CC1 | 3.485 | 6.561
CC(C)CS(=O)(=O)CCNc1ncccn1 | 4.624 | -4.969
Cn1cncc1CNC1CC2(CCN(CC3CC3)CC2)c2ccccc21 (centres undefined) | 0.9709 | -
c1ccc(Oc2nccnc2C2CCN(C3CCOCC3)CC2)cc1 | -6.368 | 0.8589
Cc1cc(C)n(C2CN(CC(O)COc3ccc(F)cc3)C2)n1 (centres undefined) | 5.356 | 2.169
Cc1ccc(-c2cc(CNC(=O)N3CCC(N(C)C)CC3)on2)cc1 | 0.05903 | 1.786
COCC(=O)NC[C@H]1C[C@@H]2CCN1C[C@@H]2CN1CCc2ccccc21 | -0.6865 | -40.28
Cc1cc(NC(=O)C(C)Oc2ccc3c(c2)OCO3)no1 (centres undefined) | 5.018 | -48.79
O=C([C@H]1C[C@H]2[C@H](CCN2Cc2cccs2)O1)N1CCOCC1 | -4.975 | 2.353
COCC(=O)N1C[C@H]2CNC[C@@]2(C(=O)NCc2cccc3[nH]ccc23)C1 | -6.498 | -10.45
CC(c1cccc(O)c1)N(C)S(N)(=O)=O (centres undefined) | 2.167 | -
CCS(=O)(=O)N1CCCC(n2nnn(-c3ccccc3)c2=O)C1 (centres undefined) | -4.948 | 0.9569
CCCOCC1CCN(C(=O)Cn2cccc(OC)c2=O)C1 (centres undefined) | 1.927 | 6.41
O=C(COc1coc(CN2CCOCC2)cc1=O)c1ccc(Cl)cc1 | -3.072 | 9.852
CCc1cc(N(C)Cc2cc[nH]n2)n2nc(C)c(C)c2n1 | -1.288 | 6.71
Cc1cccc2c1nc(CCO)n2-c1ccc(N)nc1 | -2.205 | 5.627
O=C(c1cccc(CNC/C=C/c2ccccc2)c1)N1CCCC1 | 8.06 | 9.724
Cc1nc(C)c(C(=O)N2CCc3nc4sc(C)cc4c(=O)n3CC2)o1 | - | -3.098

The first 8 entries again:

{"compound": "Cc1nnc([C@@H]2CCO[C@@H]3CCN(C(=O)Cc4ccsc4)C[C@@H]32)o1", "A": -0.3607, "B": 5.499}
{"compound": "O=C1NCC(C(=O)Nc2ncc(Cc3ccccc3F)s2)N1", "stereo": "centres undefined", "A": 7.809, "B": -7.081}
{"compound": "CCc1nc(NC2CCCN(C(=O)C3CC3)C2)c2cnn(C)c2n1", "stereo": "centres undefined", "A": 0, "B": -1.823}
{"compound": "Cc1nnc(SCCC(=O)N(C)Cc2ccc(F)cc2F)[nH]1", "A": 4.156, "B": -4.959}
{"compound": "CN1CCC(c2cncc(-c3cccc(Cl)c3)n2)CC1", "B": 3.098}
{"compound": "COc1cccc(CNc2c(C)nn(C(C)C)c2C)c1", "A": -0.6518, "B": 4.628}
{"compound": "CC(C(=O)N1CCOCC1)S(=O)(=O)Cc1nc(C(C)(C)C)no1", "stereo": "centres undefined", "A": -1.92, "B": 2.903}
{"compound": "c1ccc(CN2Cc3ccnn3CC(COCc3cccnc3)C2)nc1", "stereo": "centres undefined", "A": -5.183, "B": -11.68}